Data reported in PubChem BioAssay AID540303 (National Center for Advancing Translational Sciences (NCATS), 2011).
Several values for one entry are separate records, joined by “and”; a condition that tells them apart may be missing. Equal entries are not always repeated. Out of some 330,000 compounds screened, about 1,000 (0.3%) were called active. This list was built around the results that the source calls inconclusive (neither active nor inactive); the mix of calls is not that of the screen. Calls follow the shape of the dose curve; as a rule, active = well fitted inhibition curve with a large enough effect; inconclusive = small, poorly fitted or top-dose-only effect; inactive = no such curve, though single readings can be large or run the other way; tested in mouse RAW 264.7 cells. A potency beside an inconclusive call is a rough fit, not a confirmed value.

Assay: qHTS for Inhibitors of Cell Surface uPA Generation; also: nearly all actives have a fitted effect of over 55% in size
Conditions: cell surface uPA generation assay; series mostly up to 38.3 µM; activity change, negative = inhibition: at the top concentration
Procedure, shortened: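 Murine RAW 264.7 cells are treated for 24 h with compound up to 38.3 uM final. Cell ATP, measured by ATP-Lite, remains high if blocking the uPA cascade prevents LF from reaching the cytoplasm.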
% is scaled to controls: 0 for no effect and ±100 for the full control effect; potency is read from the fitted curve at half-maximal effect.

SMILES	Potency	activity change, negative = inhibition
CC(C)(C)OC(=O)[C@H](Cc1ccccc1)NC(=O)c1nc[nH]c1C(=O)N[C@@H](Cc1ccccc1)C(=O)OC(C)(C)C	inconclusive: 28.2 µM [inhibitor, single point]	–
Cc1ccc(C)n1-c1ccc(C(=O)NC2CCN(Cc3ccccc3)CC2)cc1	inconclusive: 11.2 µM [inhibitor, single point]	–
CCOc1ccccc1OCCCC(=O)N1CCN(S(=O)(=O)c2cc(F)ccc2F)CC1	inconclusive: 0.316 µM [inhibitor, full curve, poor fit]	–
CCCCCC1(C(=O)OCC)CC(CSC(=N)N)OC1=O (stereo unspecified)	inconclusive: 8.91 µM [inhibitor, single point]	–
CN(c1ccc(C(=O)NCc2cccs2)cc1)S(=O)(=O)c1ccccc1	active: 2.24 µM	–
CC(=O)Oc1c(C)c(=O)n(C)c2ccccc12	–	inactive: 13.1%
Nc1ncnc2c1ncn2C1C=C(CO)C(O)C1O (stereo unspecified)	–	inactive: -7.35%
Cc1cccc(C)c1NC(=S)NC(C)(C)CO	inconclusive: 2.82 µM [inhibitor, single point]	–
O=c1cc(C(F)(F)F)c2sc(N3CCCCC3)nc2[nH]1	–	inactive: 0.848%
Cc1nc2cc(-c3ccc(F)cc3)[nH]n2c(=O)c1C	inconclusive: 12.6 µM [inhibitor, single point]	–
O=C1/C(=C\c2ccc(O)cc2)SC(=S)N1/N=C/c1ccc(O)cc1	–	inactive: -10.5%
O=C(NCCCn1ccnc1)c1cn(-c2ccccc2)nc1-c1ccccc1	–	inactive: -10.5%
CCOC(=O)N1CCC(N2Cc3cccc(C(=O)Nc4cccc(F)c4)c3C2=O)CC1	–	inactive: 2.87%
CCc1ccc(Nc2nnc(SCC(=O)Nc3sccc3C(N)=O)s2)cc1	–	inactive: -10.8%
CC(=O)Nc1cc2c(cc1Cl)-c1ccc(F)cc1C2O (stereo unspecified)	–	inactive: -11.4%
CNC(=O)Nc1cccc2cccnc12	–	inactive: 0.119%
COc1ccc(-c2nn(-c3ccccc3)cc2C(=O)NC(=S)NNC(=O)c2ccncc2)cc1	inconclusive: 8.91 µM [inhibitor, single point]	–
O=C(COc1cccc(Cl)c1)Nc1ccc(N2CCOCC2)cc1	–	inactive: 0.638%
Cc1cccc(C)c1NC(=O)CN(C)CC(=O)c1c(N)n(Cc2ccccc2)c(=O)n(C)c1=O	inconclusive: 3.16 µM [inhibitor, full curve, poor fit]	–
CN(C)S(=O)(=O)N1CCC(Oc2cccc(C(=O)NC3CCCCC3)c2)CC1	–	inactive: -12.4%
S=c1[nH]nc(C2CCCCC2)n1/N=C/c1ccccn1	inconclusive: 0.447 µM [inhibitor, full curve, poor fit]	–
COC(=O)C1(C)CN(S(=O)(=O)c2ccc(C)cc2)c2cc(OC)ccc2C1=O (stereo unspecified)	–	inactive: -7.65%
COc1ccc2c(c1)C1OCCC1C(c1ccco1)N2 (stereo unspecified)	active: 2.51 µM	–
CC1CN(S(=O)(=O)c2cc(C(=O)NCc3ccncc3)ccc2Cl)CC(C)O1 (stereo unspecified)	–	inactive: -4.31%

SMILES	Potency	activity change, negative = inhibition
COc1ccccc1NC(=O)Cc1ccc(-c2ccccc2)cc1	–	inactive: -27%
COc1ccc(-c2cc3c(=O)n(CC(=O)N4CCN(C)CC4)ncn3n2)cc1	inconclusive: 0.0141 µM [inhibitor, full curve, poor fit]	–
CCCCSc1nc(C)cc(NC(=S)Nc2ccc(OC)cc2)n1	–	inactive: -1.14%
Cc1ccc(S(=O)(=O)N2CCOCC2)cc1C(=O)OCC(=O)NC1CCCC(C)C1C (stereo unspecified)	inconclusive: 2.82 µM [inhibitor, full curve, poor fit]	–
COc1ccc2c(c1)N(C[C@H](C)CN(C)C)c1ccccc1S2	inconclusive: 12.6 µM [inhibitor, single point]	–
Cc1nc(NC(=O)c2ccccc2)sc1C1(C)CC(c2c(Cl)cccc2Cl)=NO1 (stereo unspecified)	inconclusive: 20 µM [inhibitor, single point]	–
C(=N\Nc1nccc(-c2cccnc2)n1)/c1ccccc1	inconclusive: 6.31 µM [inhibitor, partial curve]	–
Cc1ccc(NC(=O)CSC(N)=O)cc1Cl	–	inactive: 5.25%
CCCN1CCN(CCCNC(=O)c2ccc3c(Cl)c4c(nc3c2)CCCC4)CC1	inconclusive: 3.55 µM [inhibitor, partial curve]	–
CCN(CC)S(=O)(=O)c1ccc(Cl)c(NC(=O)COC(=O)/C=C/c2ccc(O)c(OC)c2)c1	inconclusive: 8.91 µM [inhibitor, partial curve, poor fit]	–
Cc1ccc(COn2c(-c3ccc(Cl)cc3)nc3ccc([N+](=O)[O-])cc32)cc1	–	inactive: 6.68%
O=C(Nc1cccc(C(=O)N2CCOCC2)c1)c1ncn[nH]1	–	inactive: 0.936%
O=C(Oc1ccc2c(c1)OCO2)c1ccncc1	inconclusive: 7.94 µM [inhibitor, single point]	–
Cc1cccc(NC(=O)CSc2nc3ccccc3nc2N2CC(C)OC(C)C2)c1 (stereo unspecified)	inconclusive: 10 µM [inhibitor, single point]	–
O=C(Nc1ccccc1)OCC1COC(c2ccccc2)(c2ccccc2)O1 (stereo unspecified)	–	inactive: 6.82%
O=C(Nc1nc2ccccc2s1)c1ccccc1	inconclusive: 12.6 µM [inhibitor, partial curve, poor fit]	–
C=CCn1c(O)c(C2=c3ccccc3=NC2=O)c2ccccc21	–	inactive: -6.98%
O=C(Cc1ccccc1)NC1CCN(C(=O)NCc2ccccc2)CC1	–	inactive: 4.92%
CCCN1CCC(=O)N([C@H](CSc2ccc(OC)cc2)Cc2ccccc2)CC1	inconclusive: 12.6 µM [inhibitor, single point]	–
Cc1[nH][nH]c(=O)c1C(c1ccc2c(c1)OCO2)c1c(C)[nH][nH]c1=O	inconclusive: 2 µM [inhibitor, single point]	–
O=C(c1ccc(Cl)c(S(=O)(=O)N2CCCC2)c1)N1CCN(c2ccc(F)cc2)CC1	–	inactive: -1.05%
COC(=O)CCSC(=S)N1CCOCC1	–	inactive: 11.9%
CCOC(=O)C1(Cc2ccc(OC)cc2)CCN(C(=O)c2ccc3[nH]ccc3c2)CC1	active: 11.2 µM	–
Brc1ccc(C2=CC(c3ccco3)n3nnnc3N2)cc1 (stereo unspecified)	inconclusive: 3.16 µM [inhibitor, partial curve, poor fit]	–

SMILES	Potency	activity change, negative = inhibition
Cc1ccccc1CN1C(=O)c2ccccc2Sc2ccc(C(=O)NCCCN3CCOCC3)cc21	inconclusive: 3.55 µM [inhibitor, partial curve, poor fit]	–
CN1CCC(=C2c3ccccc3CC(=O)c3sccc32)CC1	inconclusive: 10 µM [inhibitor, single point] and inconclusive: 3.98 µM [inhibitor, partial curve, poor fit] and inconclusive: 10 µM [inhibitor, partial curve, poor fit]	–
Cc1c(Cc2ccc3c(c2)OCO3)sc(NC(=O)c2cccc3ccccc23)c1C(N)=O	inconclusive: 7.94 µM [inhibitor, partial curve, poor fit]	–
Cc1ccc(S(=O)(=O)CCC(=O)Nc2ccccc2N2CCCC2)cc1	–	inactive: -27.4%
COc1ccc(Nc2cc(Nc3ccccc3)ncn2)cc1	inconclusive: 1 µM [inhibitor, full curve, poor fit]	–
CN1CCN(C(=O)c2cccc(-c3cc(O)c4ncccc4c3)c2)CC1	inconclusive: 8.91 µM [inhibitor, single point]	–
Cc1cc(-c2ccc(C)c(S(=O)(=O)NCC3CCN(Cc4cccc(F)c4)CC3)c2)on1	inconclusive: 8.91 µM [inhibitor, partial curve, poor fit]	–
COCC(=O)Nc1nnc(-c2ccc(C(C)(C)C)cc2)s1	inconclusive: 3.98 µM [inhibitor, partial curve, poor fit]	–
CCCCCCCCNS(=O)(=O)CCNC1CC1	–	inactive: 15.8%
CC(C)(C)c1ccc(NC(=O)C2=CC=CN3CCS(=O)(=O)N=C23)cc1	inconclusive: 8.91 µM [inhibitor, partial curve, poor fit]	–
CC1(C)C(=O)Nc2ccccc2N1C(=O)Cn1ncc(Cl)c(Cl)c1=O	inconclusive: 7.94 µM [inhibitor, partial curve]	–
CCC(=O)Nc1cccc(NC(=S)NC(=O)c2ccc(C)cc2)c1	inconclusive: 1.58 µM [inhibitor, partial curve, poor fit]	–
O=[N+]([O-])c1ccc(Nc2ccccc2F)nc1	inconclusive: 10 µM [inhibitor, partial curve]	–
CC(=O)NCCc1c[nH]c2ccc(O)cc12	–	inactive: -3.31%
CCOc1ccc(-n2nnnc2SCC(=O)Nc2cccc(O)c2)cc1	inconclusive: 3.16 µM [inhibitor, partial curve, poor fit]	–
COC(=O)C1=C(C(=O)OC)[C@@H]2N(Cc3ccccc3)c3ccccc3[C@@]23C[C@@H](C(=O)OC)N(C(=O)c2ccc(Br)cc2)C3=N1	inconclusive: 8.91 µM [inhibitor, partial curve]	–
CN(C)CCNc1nc2sc3c(c2c(=O)n1CCc1ccccc1)CCCCC3	inconclusive: 8.91 µM [inhibitor, single point]	–
O=C(CSc1nc2ccccc2o1)N/N=C/c1ccc(O)c(O)c1	active: 6.31 µM	–
CCN1C(=O)CC(c2ccccc2)N(C2CCCC2)c2nc(Nc3ccc(C(=O)NC4CCN(C)CC4)cc3OC)ncc21 (stereo unspecified)	inconclusive: 12.6 µM [inhibitor, single point]	–
Cc1cccc(NCc2ccc(O)c3ncccc23)c1C	–	inactive: -19.5%
CN(C)CCCN(Cc1ccccc1)C(=S)Nc1ccc(SC(F)F)cc1	inconclusive: 4.47 µM [inhibitor, partial curve, poor fit]	–
O=C(COc1c(Cl)cccc1Cl)Nc1ccccc1N1CCCC1	inconclusive: 7.94 µM [inhibitor, single point]	–
CCN(CC)c1nc2c(c(=O)[nH]c(=O)n2C)n1Cc1ccccc1Cl	inconclusive: 0.316 µM [inhibitor, full curve, poor fit]	–

Copied from the list.
Value for `CC(=O)Oc1c(C)c(=O)n(C)c2ccccc12` under activity change, negative = inhibition: inactive: 13.1%
Value for `CC(C)(C)OC(=O)[C@H](Cc1ccccc1)NC(=O)c1nc[nH]c1C(=O)N[C@@H](Cc1ccccc1)C(=O)OC(C)(C)C` under Potency: inconclusive: 28.2 µM [inhibitor, single point]
Value for `COc1ccccc1NC(=O)Cc1ccc(-c2ccccc2)cc1` under activity change, negative = inhibition: inactive: -27%
Value for `COc1ccc(-c2cc3c(=O)n(CC(=O)N4CCN(C)CC4)ncn3n2)cc1` under Potency: inconclusive: 0.0141 µM [inhibitor, full curve, poor fit]
